Assay: Fmoc solid-phase peptide synthesis
Conditions: whole synthesis

Substance: HYNIC-P8RI
- isolated yield: 52%
- final HPLC purity (RP-HPLC): 96%

Source: patent US11098124B2 (INSTITUT NATIONAL DE LA SANTE ET DE LA RECHERCHE MEDICALE …, priority 2016, dated 2021)
